From PubChem BioAssay AID270 (DTP/NCI, 2004)
The list does not hold the whole screen: it is rich in T/C values a quarter to a half above the control, in often repeated tests (any T/C) and in doses without a T/C. Further doses and runs are listed elsewhere. T/C is the treated group as % of the vehicle group. Some entries give survivors of the animals treated and no T/C: the source holds a T/C of zero for them, seemingly a mark for toxic or unscored doses. Some doses without a T/C left all or most animals alive at the check, yet need not have been tolerated: the source hardly ever lists a survival T/C far under the control, and the zero likely stands for such cases as well. Survivors were counted at the toxicity check, usually on the fifth day, unless a day is given; later deaths do not show. Schedules are NCI's codes, taken here to give the interval after Q, in days (D) or hours (H), and the number of doses after X. For survival time, this PubChem deposit counts one and a half times the control or more as active, and values a quarter to a half above the control carry no call in these data; other NCI protocols may use other cut-offs.

System: BDF1 mice, s.c. Lewis lung carcinoma, T/C %
Test: NCI In Vivo Anticancer Drug Screen. Data for tumor model Lewis Lung Carcinoma (subcutaneous) in B6D2F1 (BDF1) mice
How it was run: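 Antitumor effect in vivo is scored from survival or tumor burden, reported as treated relative to vehicle controls.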

Nc1nc(SCc2ccccc2Cl)c2[nH]cnc2n1
survivor count (T/C endpoint: mean tumor weight, dose: 180.0 mg/kg/injection, schedule: Q01DX011 (ip), vehicle: other, higher T/C = larger tumour): 0 of 6

O=c1[nH]cc(F)c(=O)[nH]1
survivor count (T/C endpoint: mean tumor weight, dose: 40.0 mg/kg/injection, schedule: Q01DX011 (ip), vehicle: saline, higher T/C = larger tumour): 0 of 6
survivor count (T/C endpoint: median survival time, dose: 5.0 mg/kg/injection, schedule: Q01DX009 (ip), vehicle: Klucel (hydroxypropylcellulose) (HPC), higher T/C = longer survival): 10 of 10
T/C (T/C endpoint: median survival time, dose: 5.0 mg/kg/injection, schedule: Q01DX009 (ip), vehicle: saline with Tween-80, higher T/C = longer survival): 125 % of control
survivor count (T/C endpoint: median survival time, dose: 8.0 mg/kg/injection, schedule: Q01DX009 (ip), vehicle: saline, higher T/C = longer survival): 10 of 10
T/C (T/C endpoint: median survival time, dose: 10.0 mg/kg/injection, schedule: Q01DX009 (ip), vehicle: saline with Tween-80, higher T/C = longer survival): 125 % of control
survivor count (T/C endpoint: median survival time, dose: 16.0 mg/kg/injection, schedule: Q01DX009 (ip), vehicle: saline, higher T/C = longer survival): 9 of 10
T/C (T/C endpoint: median survival time, dose: 20.0 mg/kg/injection, schedule: Q01DX009 (ip), vehicle: Klucel (hydroxypropylcellulose) (HPC), higher T/C = longer survival): 132 % of control
T/C (T/C endpoint: median survival time, dose: 20.0 mg/kg/injection, schedule: Q01DX009 (ip), vehicle: saline, higher T/C = longer survival): 142 % of control
survivor count (T/C endpoint: median survival time, dose: 32.0 mg/kg/injection, schedule: Q01DX009 (ip), vehicle: saline, higher T/C = longer survival): 10 of 10
survivor count (T/C endpoint: median survival time, dose: 40.0 mg/kg/injection, schedule: Q01DX009 (ip), vehicle: Klucel (hydroxypropylcellulose) (HPC), higher T/C = longer survival): 9 of 10
survivor count (T/C endpoint: median survival time, dose: 40.0 mg/kg/injection, schedule: Q01DX009 (ip), vehicle: saline with Tween-80, higher T/C = longer survival): 10 of 10
survivor count (T/C endpoint: median survival time, dose: 40.0 mg/kg/injection, schedule: Q01DX009 (ip), vehicle: saline, higher T/C = longer survival): 8 of 8
T/C (T/C endpoint: median survival time, dose: 60.0 mg/kg/injection, schedule: Q04DX004 (ip), vehicle: saline, higher T/C = longer survival): 141 % of control
survivor count (T/C endpoint: median survival time, dose: 64.0 mg/kg/injection, schedule: Q01DX009 (ip), vehicle: saline, higher T/C = longer survival): 10 of 10
survivor count (T/C endpoint: median survival time, dose: 125.0 mg/kg/injection, schedule: Q04DX002 (ip), vehicle: saline, higher T/C = longer survival): 6 of 10 on day 36
survivor count (T/C endpoint: median survival time, dose: 128.0 mg/kg/injection, schedule: Q01DX009 (ip), vehicle: saline, higher T/C = longer survival): 9 of 10
survivor count (T/C endpoint: median survival time, dose: 256.0 mg/kg/injection, schedule: Q01DX009 (ip), vehicle: saline, higher T/C = longer survival): 10 of 10
survivor count (T/C endpoint: median tumor weight (est.), dose: 40.0 mg/kg/injection, schedule: Q01DX009 (ip), vehicle: Klucel (hydroxypropylcellulose) (HPC), higher T/C = larger tumour): 6 of 10

CCCCC[C@H](O)/C=C/[C@H]1[C@H](O)CC(=O)[C@@H]1C/C=C\CCCC(=O)O
survivor count (T/C endpoint: median survival time, dose: 100.0 mg/kg/injection, schedule: Q04DX002 (ip), vehicle: saline with Tween-80, higher T/C = longer survival): 2 of 3
survivor count (T/C endpoint: median survival time, dose: 200.0 mg/kg/injection, schedule: Q04DX002 (ip), vehicle: saline with Tween-80, higher T/C = longer survival): 3 of 3
survivor count (T/C endpoint: median survival time, dose: 400.0 mg/kg/injection, schedule: Q04DX002 (ip), vehicle: saline with Tween-80, higher T/C = longer survival): 0 of 3

C[C@]12CCC(=O)C=C1CC[C@@H]1[C@@H]2[C@@H](O)C[C@@]2(C)[C@H]1CC[C@]2(O)C(=O)COC(=O)c1ccc([N+](=O)[O-])cc1Cl
survivor count (T/C endpoint: mean tumor weight, dose: 1000.0 mg/kg/injection, schedule: Q01DX011 (sc), vehicle: steroid suspending solution, higher T/C = larger tumour): 2 of 6

O=C(NO)c1ccccc1O
survivor count (T/C endpoint: median survival time, dose: 50.0 mg/kg/injection, schedule: Q01DX009 (ip), vehicle: saline with Tween-80, higher T/C = longer survival): 10 of 10
survivor count (T/C endpoint: median survival time, dose: 100.0 mg/kg/injection, schedule: Q01DX009 (ip), vehicle: saline with Tween-80, higher T/C = longer survival): 10 of 10
survivor count (T/C endpoint: median survival time, dose: 200.0 mg/kg/injection, schedule: Q01DX009 (ip), vehicle: saline with Tween-80, higher T/C = longer survival): 8 of 10

NC(=O)c1[nH]nc(C2OC(CO)C(O)C2O)c1O (centres undefined)
T/C (T/C endpoint: median survival time, dose: 1.0 mg/kg/injection, schedule: Q04DX003 (iv), vehicle: saline, higher T/C = longer survival): 148 % of control
T/C (T/C endpoint: median survival time, dose: 3.0 mg/kg/injection, schedule: Q04DX003 (iv), vehicle: saline, higher T/C = longer survival): 129 % of control
T/C (T/C endpoint: median survival time, dose: 9.0 mg/kg/injection, schedule: Q04DX003 (iv), vehicle: saline, higher T/C = longer survival): 138 % of control
